The text below walks through data of article PMC10931843.

No constants are given. Whether binding was seen depends on the method and setting. Some entries that bind do so weakly or less than the wild type. For some assays here: Sequences can lack the tags named with a protein.

The target of experiment [1] is SlMBP21 (tomato (Solanum lycopersicum)) (UniProt K4DEK0). Description: two-hybrid; … GAL4 Two-Hybrid System III; baits in pGBKT7 in yeast Y2Hgold, preys in pGADT7 in yeast Y187; growth on QDO (SD lacking Trp, Leu, His, adenine) and blue colour on QDO/X (with X-alpha-Gal).
The target in experiment [2] is T1, SlMADS1 (tomato (Solanum lycopersicum)), Q7Y040.
T1 chain: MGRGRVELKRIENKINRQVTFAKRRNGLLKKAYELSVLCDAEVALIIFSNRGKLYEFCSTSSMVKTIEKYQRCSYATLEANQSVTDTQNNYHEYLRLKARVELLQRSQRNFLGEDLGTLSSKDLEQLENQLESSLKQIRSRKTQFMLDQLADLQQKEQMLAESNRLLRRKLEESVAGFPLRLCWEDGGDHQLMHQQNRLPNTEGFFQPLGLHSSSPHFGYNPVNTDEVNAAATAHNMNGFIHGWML
The description is as above. The conditions noted are these: remark: other sources report otherwise.

Take SlMBP21 (from UniProt K4DEK0 1-250): in experiment [1], the binding entry was “binds”.

B1: SlMBP21, K4DEK0 1-250 (protein)
chain: MGRGRVELKRIENKINRQVTFAKRRNGLLKKAYELSILCDAEVALIIFSSRGKLYEFSSASSMMTTLEKYQQCSYASLDPMLPVSDTQMNYNEYVRLKARVELLQRSQRHILGEDLGTLNSKELEQLEHQLDASLKKVRSKKTQSMLDQLADLQEKEQMLEEANKQLKNKLEESAARIPLGLSWGNNGGQTMEYNRLPPQTTAQPFFQPLRLNSSSPQFGYNPNMGANDHEVNAATTAHNINGFIPGWML
Regarding B1, the binding entry in experiment [2] was “no binding”.
